For the test, the target named is integrin beta 3 (ITGB3) (human (endogenous in AGS)) (UniProt P05106). Kind of test: co-IP; cell lysates (50 mM Tris-HCl pH 7.4, 5 mM EDTA, 1% Triton X-100, 150 mM NaCl, protease inhibitors) incubated with antibody-bound protein A/G agarose beads at 4 °C overnight, washed 5 times with PBS, Western blot; AGS cells with or without DAB2 knockdown, HGC27 cells with or without DAB2 overexpression. Background: Immunoblotting shows a protein as a band on a membrane.

Amino acid sequences for entries named in this document (tags omitted). Residues count along the entry.
UniProt P05106, residues 27-788: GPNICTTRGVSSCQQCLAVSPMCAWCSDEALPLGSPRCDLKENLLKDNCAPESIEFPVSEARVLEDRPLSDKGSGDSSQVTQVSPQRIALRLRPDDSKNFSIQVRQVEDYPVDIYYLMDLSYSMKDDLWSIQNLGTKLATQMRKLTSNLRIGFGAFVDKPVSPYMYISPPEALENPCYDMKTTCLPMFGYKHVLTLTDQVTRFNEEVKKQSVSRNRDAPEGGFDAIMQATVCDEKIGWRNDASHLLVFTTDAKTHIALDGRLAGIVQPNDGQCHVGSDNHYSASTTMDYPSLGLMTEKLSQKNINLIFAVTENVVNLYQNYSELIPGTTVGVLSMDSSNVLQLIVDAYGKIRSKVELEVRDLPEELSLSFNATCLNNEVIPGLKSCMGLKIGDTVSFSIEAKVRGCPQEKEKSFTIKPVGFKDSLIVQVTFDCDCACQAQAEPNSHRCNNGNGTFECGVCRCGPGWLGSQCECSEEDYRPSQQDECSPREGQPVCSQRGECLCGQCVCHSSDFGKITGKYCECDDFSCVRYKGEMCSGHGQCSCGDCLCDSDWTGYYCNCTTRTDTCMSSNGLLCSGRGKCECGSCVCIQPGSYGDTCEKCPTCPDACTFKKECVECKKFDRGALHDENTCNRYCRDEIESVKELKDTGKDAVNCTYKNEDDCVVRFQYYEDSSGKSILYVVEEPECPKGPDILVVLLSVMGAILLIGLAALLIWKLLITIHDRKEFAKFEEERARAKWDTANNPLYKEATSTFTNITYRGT

These are yes or no findings as the source states them, for the method shown. Binding seen in cells or lysates may run through a third protein. Some results given as binding are weak or reduced against the parent protein; the word gives no strength.

B1: Disabled homolog 2 (DAB2) (protein, UniProt P98082 1-770)
chain: MSNEVETSATNGQPDQQAAPKAPSKKEKKKGPEKTDEYLLARFKGDGVKYKAKLIGIDDVPDARGDKMSQDSMMKLKGMAAAGRSQGQHKQRIWVNISLSGIKIIDEKTGVIEHEHPVNKISFIARDVTDNRAFGYVCGGEGQHQFFAIKTGQQAEPLVVDLKDLFQVIYNVKKKEEEKKKIEEASKAVENGSEALMILDDQTNKLKSGVDQMDLFGDMSTPPDLNSPTESKDILLVDLNSEIDTNQNSLRENPFLTNGITSCSLPRPTPQASFLPENAFSANLNFFPTPNPDPFRDDPFTQPDQSTPSSFDSLKSPDQKKENSSSSSTPLSNGPLNGDVDYFGQQFDQISNRTGKQEAQAGPWPFSSSQTQPAVRTQNGVSEREQNGFSVKSSPNPFVGSPPKGLSIQNGVKQDLESSVQSSPHDSIAIIPPPQSTKPGRGRRTAKSSANDLLASDIFAPPVSEPSGQASPTGQPTALQPNPLDLFKTSAPAPVGPLVGLGGVTVTLPQAGPWNTASLVFNQSPSMAPGAMMGGQPSGFSQPVIFGTSPAVSGWNQPSPFAASTPPPVPVVWGPSASVAPNAWSTTSPLGNPFQSNIFPAPAVSTQPPSMHSSLLVTPPQPPPRAGPPKDISSDAFTALDPLGDKEIKDVKEMFKDFQLRQPPAVPARKGEQTSSGTLSAFASYFNSKVGIPQENADHDDFDANQLLNKINEPPKPAPRQVSLPVTKSTDNAFENPFFKDSFGSSQASVASSQPVSSEMYRDPFGNPFA
Turning to B1, the binding result was “binds”.
